This is one part of the list.
Target: T1, OsSMF1 (Oryza sativa, UniProt Q6ZLB0 1-436)
T1 sequence: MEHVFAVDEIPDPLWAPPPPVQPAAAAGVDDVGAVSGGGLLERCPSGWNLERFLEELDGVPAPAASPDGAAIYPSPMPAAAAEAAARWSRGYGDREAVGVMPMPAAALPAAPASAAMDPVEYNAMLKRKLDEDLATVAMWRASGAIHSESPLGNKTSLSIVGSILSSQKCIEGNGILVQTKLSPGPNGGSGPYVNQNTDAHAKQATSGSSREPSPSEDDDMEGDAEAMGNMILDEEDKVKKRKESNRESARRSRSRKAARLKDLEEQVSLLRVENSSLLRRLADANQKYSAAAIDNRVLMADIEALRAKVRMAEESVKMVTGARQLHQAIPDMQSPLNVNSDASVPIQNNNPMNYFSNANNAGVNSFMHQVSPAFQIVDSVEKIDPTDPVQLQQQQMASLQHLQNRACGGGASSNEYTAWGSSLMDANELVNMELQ
Experiment: protein-binding microarray (RPBM); PBS, 2% BSA, 51.3 ng/ul salmon testes DNA, 50 uM zinc acetate, 200 nM TF, 25 C, 1 h; high values mean tight binding
Conditions: protein: recombinant; tags: N-terminal polyhistidine and DsRed monomer fusion (pET32a); chain copies: 2; label: CyDye5-dUTP incorporated in the synthesized complementary strand; 3' TTTTT single-stranded linker to array surface; dsDNA, one strand shown
How it was run: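 For the binding signal, per-feature fluorescence intensity was read in arbitrary units on an Axon 4000B scanner. Before scanning, a 2% BSA-blocked custom Agilent array made double-stranded with Cy5-dUTP was washed after 1 h at 25 °C with 200 nM protein and 50 µM zinc acetate. The proteins were Ni–NTA-purified transcription factors with N-terminal polyhistidine and DsRed fusions, expressed in E. coli BL21-CodonPlus.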

First: CTGCCGCCGCCCGGGTCATCTGTTCCGCCCACCGCCGTCGCGGAGTCACCTAGTGCAG
Second: GTGACATGAGTAGATGCTCAACGCTAACACGCCATATGTCCGGAGTCACCTAGTGCAG
The binding signal of the first is lower: 3480 fluorescence intensity (a.u.) for the first, 4300 fluorescence intensity (a.u.) for the second.

First: GGTTAGGGTTTGGGGTGGGGAGGGGTGGATGCGCGTGGGCCGGAGTCACCTAGTGCAG
Second: CCTTAATTATAATCCATGTAGACGTCAACGTATGATAAAGCGGAGTCACCTAGTGCAG
The binding signal of the first is higher: 5350 fluorescence intensity (a.u.) for the first, 3800 fluorescence intensity (a.u.) for the second.

Going from “TGGTGGTGGTGGCCATGCACACGTCGACCAAGCTCCGGATCGGAGTCACCTAGTGCAG” to “TTGCGATCAAGGCATCATCATCATCATCATCATCACGTGACGGAGTCACCTAGTGCAG”, the binding signal falls from 5270 fluorescence intensity (a.u.) to 3210 fluorescence intensity (a.u.).

Compared with “ACAACAGCTCGATCCATCCACGCGCGCGTGACGGCTCGGCCGGAGTCACCTAGTGCAG”, “TGTGTGTGAGCAGCCGCAGTCCTTACGTTTAGCCCAGTCACGGAGTCACCTAGTGCAG” is lower in binding signal: 4690 fluorescence intensity (a.u.) for the first, 3690 fluorescence intensity (a.u.) for the second.

Going from “GGAGACACCTGTGACGCTGCCGCGTGGGCCCACACGGACGCGGAGTCACCTAGTGCAG” to “AGCGATTTATAATTGTACTATTGCAAATGTGGCAAAATGCCGGAGTCACCTAGTGCAG”, the binding signal falls from 4740 fluorescence intensity (a.u.) to 3340 fluorescence intensity (a.u.).

Going from “AAATTAACCGTATATGCACATTGTTGTAAATTGCAGCTTGCGGAGTCACCTAGTGCAG” to “ACTTATTCTCCCTCAAAATCGTCATCTTCTCTGCCCTTTGCGGAGTCACCTAGTGCAG”, the binding signal rises from 3740 fluorescence intensity (a.u.) to 3800 fluorescence intensity (a.u.).

First: TCATCAGATTGTATTGTTACATTTGACTGCTTGCAGCTAGCGGAGTCACCTAGTGCAG
Second: TACACCACACGAGTATACGACGTCAGACACGACCAAACCCCGGAGTCACCTAGTGCAG
The binding signal of the first is higher: 17300 fluorescence intensity (a.u.) for the first, 4160 fluorescence intensity (a.u.) for the second.

Compared with “TTCTAAACGGTTAGTTTTCTTTAAGTTCCTTTTCAAGTTCCGGAGTCACCTAGTGCAG”, “GTCACCAGCCACGTGACACGGCGATGAATGGGATTTTGGACGGAGTCACCTAGTGCAG” is higher in binding signal: 3360 fluorescence intensity (a.u.) for the first, 5470 fluorescence intensity (a.u.) for the second.

First: ACATTTATTTCCCATATGAAATTTGCTCAAAATTAACTTGCGGAGTCACCTAGTGCAG
Second: CTTCAGGGTCGTCGCCGCTTCACTACCTCATCAGCATCCACGGAGTCACCTAGTGCAG
The binding signal of the first is higher: 21700 fluorescence intensity (a.u.) for the first, 3720 fluorescence intensity (a.u.) for the second.

Compared with “AGTAAGGAGAGCTGCAAGTTTCTTACACAATATGTTGTCTCGGAGTCACCTAGTGCAG”, “GGACACTGACATGTGGGGCTCACCGTATGCCACGTCAGCGCGGAGTCACCTAGTGCAG” is higher in binding signal: 18200 fluorescence intensity (a.u.) for the first, 34300 fluorescence intensity (a.u.) for the second.

Going from “AGACGAAGGCCCTGATGTCAGAAAATGTGACATGGACAACCGGAGTCACCTAGTGCAG” to “GAGGGAGAGGGGAGAGGGAATGACATGTGGAACACACCATCGGAGTCACCTAGTGCAG”, the binding signal falls from 4290 fluorescence intensity (a.u.) to 3890 fluorescence intensity (a.u.).

Going from “CGTCGCCGCAAAACCCCACGTCCCCACCTCGACTCGCCTCCGGAGTCACCTAGTGCAG” to “TATGACTAATCATGGACTAATTAGGCTCAAAAGATTCGTCCGGAGTCACCTAGTGCAG”, the binding signal rises from 7120 fluorescence intensity (a.u.) to 33200 fluorescence intensity (a.u.).

First: CCAGTTTTGTCCACGTGGCAGCTGACTCACGGTGGGACCCCGGAGTCACCTAGTGCAG
Second: TACAAAGAGCGTGTGCTTCAGGAATGCGTGCCACACTCTTCGGAGTCACCTAGTGCAG
The binding signal of the first is higher: 29200 fluorescence intensity (a.u.) for the first, 3510 fluorescence intensity (a.u.) for the second.

First: TGAATTTATGTGGTTATATTATATAGCCATGTTAAATTAACGGAGTCACCTAGTGCAG
Second: GTAATGACGCGGTTACCGGTGGTAAGGGAAACCCTGCTCCCGGAGTCACCTAGTGCAG
The binding signal of the first is lower: 5950 fluorescence intensity (a.u.) for the first, 6560 fluorescence intensity (a.u.) for the second.

Going from “ATGAGTTACCTATTATCCTCCACCGTGGCAGGCCTACTCACGGAGTCACCTAGTGCAG” to “GATGGCTTTTATTGTCAAGAGATTCAAGCACTTTCTTCGCCGGAGTCACCTAGTGCAG”, the binding signal rises from 4750 fluorescence intensity (a.u.) to 13400 fluorescence intensity (a.u.).

Compared with “CCACCAAACCCTCGAAAATCAAGAGCCCGTAAAACAGAAGCGGAGTCACCTAGTGCAG”, “ACAGACCTTGTGACTTCATCACACAAACGGCCAAGCTCCCCGGAGTCACCTAGTGCAG” is higher in binding signal: 3430 fluorescence intensity (a.u.) for the first, 3860 fluorescence intensity (a.u.) for the second.

First: TTGCACGACGCCACGTAACAGATTCCTACGAACCTAAGCTCGGAGTCACCTAGTGCAG
Second: TTGTCCCTATAATAATATGTCACTCAAAATTGCTAATAAACGGAGTCACCTAGTGCAG
The binding signal of the first is higher: 4520 fluorescence intensity (a.u.) for the first, 3400 fluorescence intensity (a.u.) for the second.

Going from “TCCGGCAGCCGCCGCCGGACACCATGGCTGACTCTCCGAGCGGAGTCACCTAGTGCAG” to “GCGGGATCTCGCCACACACGTAATCCGACGCCCGCGCGACCGGAGTCACCTAGTGCAG”, the binding signal rises from 3270 fluorescence intensity (a.u.) to 4070 fluorescence intensity (a.u.).

First: CATCCAGACACTGTAGCTGATTCTGTTTAGTCAGCGTAGCCGGAGTCACCTAGTGCAG
Second: TTCATAAAACTCCACCTGATCCGAATTACTCTACCAATAACGGAGTCACCTAGTGCAG
The binding signal of the first is lower: 3480 fluorescence intensity (a.u.) for the first, 4490 fluorescence intensity (a.u.) for the second.

Compared with “GATGAGATGAGGGAGATACCATCAGACTTGCACCAGATGGCGGAGTCACCTAGTGCAG”, “AACTTTTAGGGCCAGTTCGCTTGCGAGTTTGACAATGACACGGAGTCACCTAGTGCAG” is lower in binding signal: 3660 fluorescence intensity (a.u.) for the first, 3210 fluorescence intensity (a.u.) for the second.

First: AGAAAAGGATGTGTCACTGACATGTAGGGCCCATCATTTTCGGAGTCACCTAGTGCAG
Second: ATCGGCAGCTGCCACGTGACCCGCTTCCGTCTCAAAAGCCCGGAGTCACCTAGTGCAG
The binding signal of the first is higher: 6910 fluorescence intensity (a.u.) for the first, 6320 fluorescence intensity (a.u.) for the second.

Source: article PMC7819943, “Rice protein-binding microarrays: a tool to detect cis-acting elements near promoter regions in rice”
